Library screening results

Measurements from “University of Dundee, Small-Polar-MMV Screening Library” (2021), ChEMBL document CHEMBL3988442.

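Viability assay of Plasmodium falciparum sporozoites; the read-out is not stated. The concentration is filed as 10 mM, unlikely as a test dose, so the dose is not known. Direction is inferred from retests: higher values go with lower viability. Strong results were mostly tested again. Of about 34,000 compounds tested this way, about 280 (0.84%) reached 50% or more in at least one test.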

Results are given as percent effect. The record does not define 0% and 100%; most values in the screen are far below 50% and negative numbers occur (in some assays of this library far below -100). Compounds were drawn at random from those tested, without regard to their results.

| # | structure | effect |
|---|---|---|
| 1 | `Cc1nn(C)c(Cl)c1C1CCCN1C(=O)c1cnn(C)c1C1CC1` (centres unmarked) | 4.376 |
| 2 | `Cc1nn(C)c(Cl)c1C1CCCN1C(=O)c1ccc[nH]1` (centres unmarked) | 0.2917 |
| 3 | `COCCN1CCN(CCCS(=O)(=O)N(C)C)CC1C` (centres unmarked) | 5.282 |
| 4 | `O=C(CN1CCOCC1)N(c1ccccc1)c1ccccc1` | -6.834 |
| 5 | `Cc1cccn2c(=O)cc(CN3CCCCC3Cn3cncn3)nc12` (centres unmarked) | 4.614 |
| 6 | `Cc1cccc(N2CCN(C(=O)NC(C)c3nncn3C)CC2)c1` (centres unmarked) | 5.784 |
| 7 | `CC(C)N(C)Cc1cncc2c1CCN(CC(=O)N(C)C)C2.Cl.Cl.Cl` | 13.67 |
| 8 | `CO[C@@H]1CC[C@@H](NS(=O)(=O)c2cn(C)nc2C)[C@H]1O` | 6.278 |
| 9 | `O=C(O)C(F)(F)F.[H][C@]12C[C@@H](C(=O)NCCc3cccs3)CO[C@@]1([H])CCN(CC1CC1)C2` | 10.13 |
| 10 | `O=C(N1CCC(O)(C(F)(F)F)C1)C1(c2cccc(Cl)c2)CC1` (centres unmarked) | -25.83 |
| 11 | `O=C1CCNc2ccc(F)cc2CN1Cc1ccco1` | -21.25 |
| 12 | `Cc1nc(COC[C@H]2CCC[C@@]23CN(C(C)C)CCO3)cs1.O=C(O)C(F)(F)F` | -4.4 |
| 13 | `O=C(NCc1nnc2n1CCCCC2)N1CCc2sccc2C1` | -5.728 |
| 14 | `Cc1cc(C)c(CNC(=O)NCc2nnc3n2CCCCC3)c(=O)[nH]1` | -8.324 |
| 15 | `O=C(c1ccno1)N1CCn2cc(CN3CCCCC3)nc2C1` | 9.88 |
| 16 | `CN1CCN(c2cc(CNC(=O)Cn3cccn3)ccn2)CC1` | -5.793 |
| 17 | `O=C(O)C(F)(F)F.[H][C@@]12CN(C(=O)c3ccco3)C[C@]1([H])C(=O)N(Cc1cccc(C)n1)C2` | -0.4378 |
| 18 | `Cc1cc(C)n(CC2CN(c3nnc(C)c(C)c3C#N)CCO2)n1` (centres unmarked) | -3.343 |
| 19 | `O=C(O)C(F)(F)F.[H][C@@]12CN(CC3CCCC3)C[C@]1([H])OCCN2c1ncc(F)cn1` | -13.1 |
| 20 | `Cc1nc(CN2CCCC(c3cc(C(N)=O)[nH]n3)C2)oc1C` (centres unmarked) | 9.912 |
| 21 | `CC(NC(=O)Cn1cc(-c2ccccc2)cn1)C1CC1` (centres unmarked) | 7.747 |
| 22 | `Cc1ccc(NC2CCN(C(=O)Cc3c(C)noc3C)CC2)nn1` | 2.808 |
| 23 | `CC(Cn1cccn1)NCc1csc(Cc2ccccc2)n1` (centres unmarked) | -7.405 |
| 24 | `O=C(CCn1nc(C(=O)Nc2ccccc2)ccc1=O)Nc1nccs1` | 8.505 |
| 25 | `COCCc1nc(CSc2ccncc2)n(C)n1` | -13.03 |
| 26 | `CNS(=O)(=O)c1cccc(C(C)NCc2nccn2C(C)C)c1` (centres unmarked) | 2.255 |
| 27 | `Cc1cc(C(=O)NCc2ccnc(OCC(F)(F)F)c2)on1` | -2.152 |
| 28 | `CN(Cc1cnn(C)c1)C(=O)CN1CCCC(Cn2cncn2)C1` (centres unmarked) | 3.989 |
| 29 | `COc1c(CNC(c2ccc(F)cc2)c2nccn2C)c(C)nn1C` (centres unmarked) | 17.15 |
| 30 | `Cc1cnc(C(=O)N2CCC(C(=O)c3cc(F)ccc3F)CC2)cn1` | -6.293 |
| 31 | `CCC(NC(=O)C1CCN(S(C)(=O)=O)CC1)c1ccc(OC)c(C)c1` (centres unmarked) | -1.963 |
| 32 | `COc1cc(CNCC(O)c2ccc(F)c(F)c2)cc2c1OCO2` (centres unmarked) | 2.256 |
| 33 | `Cc1c(C(=O)N2CCC(C(=O)c3nc4ccccc4s3)CC2)cnn1C` | -1.283 |
| 34 | `COc1ccc(N2CCC(N(C)C(=O)C(C)SC)CC2)cc1` (centres unmarked) | -12.61 |
| 35 | `CN(C)C(C(=O)N1CCC(N2CCSCC2)CC1)c1ccccc1F` (centres unmarked) | -6.047 |
| 36 | `[H][C@@]12CS(=O)(=O)C[C@]1([H])N(Cc1cnc(C)nc1)CCN2C(=O)N(CC)CC` | -1.374 |
| 37 | `Cn1cncc1C(=O)N1CCCC(c2ccn[nH]2)C1` (centres unmarked) | -12.71 |
| 38 | `Fc1ccccc1CN1CCC(c2noc(-c3ccccn3)n2)CC1` | 1.186 |
| 39 | `Cc1noc(C)c1CN1CCCC2(CCN(C(=O)NC3CC3)C2)C1.O=C(O)C(F)(F)F` (centres unmarked) | -3.512 |
| 40 | `Cc1cnn(CCNCc2csc(-c3ccc(C(N)=O)cc3)n2)c1` | 7.051 |
| 41 | `CN(C)C(=O)CN1CCC2(COCc3cnc(N4CCOCC4)nc32)C1.O=C(O)C(F)(F)F` (centres unmarked) | 0.7732 |
| 42 | `COc1ccc(F)cc1C(C)NC(=O)Nc1nnc(C)s1` (centres unmarked) | -8.304 |
| 43 | `CN(CC(=O)N1CCCC1Cn1cccn1)C1CC1` (centres unmarked) | -7.155 |
| 44 | `c1ccc2ncc(CC3CCNCC3)cc2c1` | 7.491 |
| 45 | `Cc1noc(C)c1-c1cncc(CC2CCN(C(=O)c3cc[nH]n3)C2)n1` (centres unmarked) | 14.33 |
| 46 | `Cn1cnc2c1CCN(CCCOc1ccc(C#N)cc1)C2` | -5.674 |
| 47 | `Cc1ccc(-c2ncc(C(=O)NCCS(N)(=O)=O)s2)c(C)c1` | 24.48 |
| 48 | `CN1C(=O)CC(c2cnn(C)c2)C12CCN(C(=O)c1ccco1)CC2` (centres unmarked) | -20.1 |
| 49 | `CN1CCC(c2cc(CCO)ncn2)C1` (centres unmarked) | -9.015 |